Laboratory results reported in paper PMC12619835.
These are yes or no findings as the source states them, for the method shown. Binding seen in cells or lysates may run through a third protein. Here binding means that the protein was enriched with, or labelled near, the bait; the list need not be complete. No binding means not detected with the bait.

Amino acid sequences for entries named in this document (tags omitted).
UniProt Q13887: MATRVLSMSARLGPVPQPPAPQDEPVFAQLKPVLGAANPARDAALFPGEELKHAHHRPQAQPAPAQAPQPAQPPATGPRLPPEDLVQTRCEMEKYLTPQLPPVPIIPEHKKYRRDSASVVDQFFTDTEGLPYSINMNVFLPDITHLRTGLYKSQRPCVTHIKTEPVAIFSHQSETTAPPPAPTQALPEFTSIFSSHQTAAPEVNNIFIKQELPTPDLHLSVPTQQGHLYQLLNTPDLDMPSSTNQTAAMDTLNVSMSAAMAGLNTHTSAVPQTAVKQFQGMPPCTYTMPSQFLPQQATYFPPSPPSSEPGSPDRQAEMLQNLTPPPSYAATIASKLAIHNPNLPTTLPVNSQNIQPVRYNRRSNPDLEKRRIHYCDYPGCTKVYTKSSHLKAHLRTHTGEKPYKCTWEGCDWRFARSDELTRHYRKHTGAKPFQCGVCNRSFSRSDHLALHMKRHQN
UniProt Q09472: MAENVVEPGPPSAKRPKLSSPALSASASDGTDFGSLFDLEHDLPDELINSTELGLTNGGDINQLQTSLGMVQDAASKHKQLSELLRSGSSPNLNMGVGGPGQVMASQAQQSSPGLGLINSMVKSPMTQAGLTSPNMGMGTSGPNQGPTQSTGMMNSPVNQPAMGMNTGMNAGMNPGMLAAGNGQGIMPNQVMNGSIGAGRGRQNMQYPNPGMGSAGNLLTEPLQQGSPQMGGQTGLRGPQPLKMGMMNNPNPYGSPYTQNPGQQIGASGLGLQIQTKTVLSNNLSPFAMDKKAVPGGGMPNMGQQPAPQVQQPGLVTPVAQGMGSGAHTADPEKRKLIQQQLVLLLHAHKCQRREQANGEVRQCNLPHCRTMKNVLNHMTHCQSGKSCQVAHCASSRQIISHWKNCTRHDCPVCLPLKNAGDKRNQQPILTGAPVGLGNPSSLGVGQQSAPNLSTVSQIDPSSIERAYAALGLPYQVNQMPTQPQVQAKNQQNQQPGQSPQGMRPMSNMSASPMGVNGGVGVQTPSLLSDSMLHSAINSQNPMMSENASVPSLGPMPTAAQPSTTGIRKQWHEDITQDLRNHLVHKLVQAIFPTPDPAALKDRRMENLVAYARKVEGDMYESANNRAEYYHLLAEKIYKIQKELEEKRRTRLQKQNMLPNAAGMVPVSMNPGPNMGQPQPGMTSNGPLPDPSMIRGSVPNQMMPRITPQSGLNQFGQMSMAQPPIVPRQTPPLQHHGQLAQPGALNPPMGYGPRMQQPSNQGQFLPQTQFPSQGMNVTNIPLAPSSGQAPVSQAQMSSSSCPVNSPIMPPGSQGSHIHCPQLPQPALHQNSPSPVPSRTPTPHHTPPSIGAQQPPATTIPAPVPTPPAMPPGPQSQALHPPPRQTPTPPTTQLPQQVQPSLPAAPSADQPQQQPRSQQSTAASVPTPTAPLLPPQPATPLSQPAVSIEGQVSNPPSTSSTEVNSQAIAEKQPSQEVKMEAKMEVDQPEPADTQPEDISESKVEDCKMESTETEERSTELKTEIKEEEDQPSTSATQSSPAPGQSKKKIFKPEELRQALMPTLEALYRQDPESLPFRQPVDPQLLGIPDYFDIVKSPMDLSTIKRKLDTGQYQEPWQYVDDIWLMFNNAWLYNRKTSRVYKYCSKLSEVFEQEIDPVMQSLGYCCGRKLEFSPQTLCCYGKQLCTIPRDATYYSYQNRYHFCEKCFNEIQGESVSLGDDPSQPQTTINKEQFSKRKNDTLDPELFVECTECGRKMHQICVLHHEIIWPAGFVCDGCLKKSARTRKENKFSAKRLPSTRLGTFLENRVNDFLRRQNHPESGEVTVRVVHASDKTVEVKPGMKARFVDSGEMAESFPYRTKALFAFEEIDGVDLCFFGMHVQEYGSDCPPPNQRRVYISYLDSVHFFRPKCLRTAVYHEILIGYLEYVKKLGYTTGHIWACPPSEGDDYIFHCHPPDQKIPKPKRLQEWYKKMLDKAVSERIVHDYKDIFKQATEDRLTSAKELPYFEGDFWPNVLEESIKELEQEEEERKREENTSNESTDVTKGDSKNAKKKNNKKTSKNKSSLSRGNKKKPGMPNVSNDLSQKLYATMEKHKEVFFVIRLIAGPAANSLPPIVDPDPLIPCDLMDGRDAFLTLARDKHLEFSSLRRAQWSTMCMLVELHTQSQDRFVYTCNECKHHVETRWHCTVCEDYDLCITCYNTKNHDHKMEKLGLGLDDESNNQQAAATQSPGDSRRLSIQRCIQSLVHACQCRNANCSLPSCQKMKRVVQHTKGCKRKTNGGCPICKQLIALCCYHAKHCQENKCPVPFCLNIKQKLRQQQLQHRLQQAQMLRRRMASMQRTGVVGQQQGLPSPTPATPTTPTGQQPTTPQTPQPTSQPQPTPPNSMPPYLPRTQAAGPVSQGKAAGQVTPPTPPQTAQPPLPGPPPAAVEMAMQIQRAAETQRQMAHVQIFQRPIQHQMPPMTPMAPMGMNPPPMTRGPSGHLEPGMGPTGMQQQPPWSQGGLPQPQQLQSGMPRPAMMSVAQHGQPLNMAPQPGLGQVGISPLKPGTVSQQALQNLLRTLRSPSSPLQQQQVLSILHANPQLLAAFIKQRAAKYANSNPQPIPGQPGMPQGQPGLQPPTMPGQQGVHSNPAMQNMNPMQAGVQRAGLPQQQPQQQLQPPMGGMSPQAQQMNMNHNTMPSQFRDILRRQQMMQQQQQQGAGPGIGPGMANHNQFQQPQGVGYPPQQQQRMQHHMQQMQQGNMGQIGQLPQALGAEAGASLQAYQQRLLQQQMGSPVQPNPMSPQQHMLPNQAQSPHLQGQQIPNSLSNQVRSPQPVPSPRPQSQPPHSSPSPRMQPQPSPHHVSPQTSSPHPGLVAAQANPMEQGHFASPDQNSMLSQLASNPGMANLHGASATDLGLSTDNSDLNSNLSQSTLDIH

Target: recombinant MBP-tagged KLF5 (human) (UniProt Q13887)
Assay: affinity purification with mass spectrometry; purified MBP-KLF5 (MBP alone as control) held on magnetic protein G beads by an MBP antibody; Benzonase-treated, pre-cleared AsPC-1 nuclear extract, 1-2 h; washes with 120 mM NaCl; 4 °C; three replicates; only the target purified

binding: no binding
Substance: EP300 (from UniProt Q09472 1-2414)
